Laboratory results published in paper PMC7819943, “Rice protein-binding microarrays: a tool to detect cis-acting elements near promoter regions in rice”.
The other results are listed elsewhere or left out.

Amino acid sequences for entries named in this document (tags omitted).
UniProt Q0JBA9, entry or part of it: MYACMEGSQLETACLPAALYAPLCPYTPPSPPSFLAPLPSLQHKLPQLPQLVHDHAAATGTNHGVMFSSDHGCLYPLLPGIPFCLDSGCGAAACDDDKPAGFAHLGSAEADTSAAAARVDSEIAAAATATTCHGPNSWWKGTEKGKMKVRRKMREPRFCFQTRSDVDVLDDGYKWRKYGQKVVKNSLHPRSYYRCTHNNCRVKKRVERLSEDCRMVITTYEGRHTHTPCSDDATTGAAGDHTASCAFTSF

molecular target: OsWRKY34 (Oryza sativa, UniProt Q0JBA9 1-250); test: protein-binding microarray (RPBM); PBS, 2% BSA, 51.3 ng/ul salmon testes DNA, 50 uM zinc acetate, 200 nM TF, 25 C, 1 h; high values mean tight binding; settings: protein: recombinant; tags: N-terminal polyhistidine and DsRed monomer fusion (pET32a); label: CyDye5-dUTP incorporated in the synthesized complementary strand; 3' TTTTT single-stranded linker to array surface; dsDNA, one strand shown
Summary of the method: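 In PBS with 2% BSA, salmon testes DNA and 50 µM zinc acetate, 200 nM protein was incubated on a custom Agilent array at 25 °C for 1 h and then washed off. The array had been made double-stranded by primer extension with Cy5-dUTP and blocked with 2% BSA. The proteins were transcription factors fused N-terminally to polyhistidine and DsRed, expressed in E. coli BL21-CodonPlus and purified on Ni–NTA. The binding signal is per-feature fluorescence intensity (arbitrary units) from an Axon 4000B scanner.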

Row | Sequence | binding signal
1 | GAGCTTTTATTTCGAGGGAATGGGCAGGGAGCTCCTGCAACGGAGTCACCTAGTGCAG | 9690 fluorescence intensity (a.u.)
2 | TTGGCGCCTCCATCAACCGTCCACGTCGTCTTCGGCCTCACGGAGTCACCTAGTGCAG | 8220 fluorescence intensity (a.u.)
3 | CTATCTGATCACCCGTTGCCATCTCCGTCGCTTCAACCACCGGAGTCACCTAGTGCAG | 15200 fluorescence intensity (a.u.)
4 | CACGCCACCGCCGATCCCCATCGACCACGACCACGCCGCCCGGAGTCACCTAGTGCAG | 8460 fluorescence intensity (a.u.)
5 | GTACGTTTCATTCAACTCCTTTCACTATTGGGTGTTTTTGCGGAGTCACCTAGTGCAG | 10800 fluorescence intensity (a.u.)
6 | AGCATCTTTTTCTAGGACAGCATCTCTACTTTCAGTTTGACGGAGTCACCTAGTGCAG | 11800 fluorescence intensity (a.u.)
7 | TACTATTGGTGCATATTTAGTTCCAAGGCGTCGTTTTAGTCGGAGTCACCTAGTGCAG | 8210 fluorescence intensity (a.u.)
8 | TCACAACATAAGTCATTTGTAACATTTTCCACATTTATATCGGAGTCACCTAGTGCAG | 8270 fluorescence intensity (a.u.)
9 | GGAGGGCGGGACGTTACATTGGGCTGCTGTTCTTAGGATCCGGAGTCACCTAGTGCAG | 13100 fluorescence intensity (a.u.)
10 | TAGCTCAACTCTCAGGTCATCGTCGGCGACCCACACAGGCCGGAGTCACCTAGTGCAG | 8020 fluorescence intensity (a.u.)
11 | GGCCCAAATAGTTCTTGTGGTACAGATCGATGCGACACTCCGGAGTCACCTAGTGCAG | 8590 fluorescence intensity (a.u.)
12 | TTACTTCCATCGCAACGACATTGCTTGCTACGTCACATGCCGGAGTCACCTAGTGCAG | 8290 fluorescence intensity (a.u.)
13 | CCGCGACCCCAACCACCACCATCCATCCATACACCCGGAGCGGAGTCACCTAGTGCAG | 9150 fluorescence intensity (a.u.)
14 | ATGTGTTAATAGTTTTCTCATTTTCCTTTGAGCCAACCTTCGGAGTCACCTAGTGCAG | 8980 fluorescence intensity (a.u.)
15 | AGCCATTTTGACCCGTGATGTGACAGCAAACATTTGACGCCGGAGTCACCTAGTGCAG | 9070 fluorescence intensity (a.u.)
16 | GCGCTCAACTTTGATCATCTGTCTTATTTGAAATTTTTTTCGGAGTCACCTAGTGCAG | 8590 fluorescence intensity (a.u.)
17 | TTGCTTACACACGTCGTAACAGTTCAGCTAGATGCTTGTCCGGAGTCACCTAGTGCAG | 8140 fluorescence intensity (a.u.)
18 | CCTGATCTTTCTACCTAGGACCCGTTTTTCTTCTCAGATTCGGAGTCACCTAGTGCAG | 8990 fluorescence intensity (a.u.)
19 | GGTGTGTTGCTTCCATGTTCCAACACGTATAGCCTTTTCGCGGAGTCACCTAGTGCAG | 9930 fluorescence intensity (a.u.)
20 | CCACCGACTTCTTCGTCTTCCTCGTTGGTCTCCTCTCTCTCGGAGTCACCTAGTGCAG | 13900 fluorescence intensity (a.u.)
21 | GCCTGCCCCATCTGCGCCGCCGAGCTCGCCGTCGACACCGCGGAGTCACCTAGTGCAG | 9760 fluorescence intensity (a.u.)

Two entries from above, tab-delimited:
Row	Sequence	binding signal
6	AGCATCTTTTTCTAGGACAGCATCTCTACTTTCAGTTTGACGGAGTCACCTAGTGCAG	11800 fluorescence intensity (a.u.)
7	TACTATTGGTGCATATTTAGTTCCAAGGCGTCGTTTTAGTCGGAGTCACCTAGTGCAG	8210 fluorescence intensity (a.u.)

(next part)

Row | Sequence | binding signal
22 | CACAAGCAGCGCAACAAGCGTTCTTTTGCATCGCCCTTGACGGAGTCACCTAGTGCAG | 8330 fluorescence intensity (a.u.)
23 | CTCTGACCATATATCACGTTCTACGTCCAGGTCAAATCACCGGAGTCACCTAGTGCAG | 8730 fluorescence intensity (a.u.)
24 | GGATGTTTCTGTCTTGACTTAACTTGATTGCGACCTGTCACGGAGTCACCTAGTGCAG | 11000 fluorescence intensity (a.u.)
25 | TCCTCTTCCTCGTCCTCGTTCTCCTCTCCACCTCAGCTCCCGGAGTCACCTAGTGCAG | 8030 fluorescence intensity (a.u.)
26 | GCTCTTAGATGTGTTTCATTAGCTATTGTTGCCCGCTGTCCGGAGTCACCTAGTGCAG | 9480 fluorescence intensity (a.u.)
27 | TCGATATCTCGATTGATGGTTTGATGTTTGTTTAATTCTGCGGAGTCACCTAGTGCAG | 8490 fluorescence intensity (a.u.)
28 | AATGGTGTCAGATCAAGTGAATTTAGGATTGCTGTAACAACGGAGTCACCTAGTGCAG | 8900 fluorescence intensity (a.u.)
29 | TACTGAACTTCGAATTTTTTCCACATACTCCTCATAGATTCGGAGTCACCTAGTGCAG | 8770 fluorescence intensity (a.u.)
30 | GGGACATCTACGCGGGCTACCGTCCGACCCTGCTATCGCCCGGAGTCACCTAGTGCAG | 9580 fluorescence intensity (a.u.)
31 | AGCTTATCGTTATTTTTTTTAAGATTCCACCTTCATATATCGGAGTCACCTAGTGCAG | 8110 fluorescence intensity (a.u.)
32 | AGGGCATCCATTTCTTTCTTTGTTTGATATTGGTGAACTCCGGAGTCACCTAGTGCAG | 8740 fluorescence intensity (a.u.)
33 | TTATTGCTTGATGATTCTCTTCTCGTGTATATATGCTTAACGGAGTCACCTAGTGCAG | 11800 fluorescence intensity (a.u.)
34 | GATTAGTCATTTTTGTCATTGTTTCTCATTATATTTTTCACGGAGTCACCTAGTGCAG | 14100 fluorescence intensity (a.u.)
35 | CCTTCCGCCGCCGCCGTCGCCGTCGCCTGCTCCAGCGCGCCGGAGTCACCTAGTGCAG | 8740 fluorescence intensity (a.u.)
36 | AGCCACTACGCCCCTAGACAGATATAAGCTCGTCTCCTTCCGGAGTCACCTAGTGCAG | 8070 fluorescence intensity (a.u.)
37 | AAAACAGTATACTATTACATTACTACCATTTATTTGTACACGGAGTCACCTAGTGCAG | 9540 fluorescence intensity (a.u.)
38 | CTTCGCCGTCAACCCTGCTCTCCTGCAGCTGGTATTGCAACGGAGTCACCTAGTGCAG | 9360 fluorescence intensity (a.u.)
39 | GGGCAACAACTCTTGAAGCTAGCGGCAACTGTCAAACACACGGAGTCACCTAGTGCAG | 8990 fluorescence intensity (a.u.)
40 | GCGACGGCGTTGGTGGCTTCCCGGTGATGTTTTTATTTTTCGGAGTCACCTAGTGCAG | 13700 fluorescence intensity (a.u.)
41 | GAATTTGAGGGTTGTGTTTTCCTTTCGGGCAAATTTCAGTCGGAGTCACCTAGTGCAG | 9420 fluorescence intensity (a.u.)
42 | GCTAAAAAGTCAACGGTGTCAAACATTTTGAAACGGAGGGCGGAGTCACCTAGTGCAG | 12100 fluorescence intensity (a.u.)
